Reference: patent US6987103B2, “Treatment of chronic myelogenous leukmia, resistant or intolerant to ST1571, involving homoharringtonine alone or combined with other agents” (Stragen Pharma S.A., priority 2001, dated 2006)
Entries after “also recorded” stand apart in the source; their conditions may differ. At least one compound was matched to its structure with a doubt left.

Columns and labels:
[1] = system: progenitor cells from patients in blast crisis relapsing on STI571 therapy; test: CFU-GM clonogenic assay of progenitor cells from patients relapsing on STI571; conditions: cells collected before STI571 treatment and at relapse; colonies counted day 14
[2] = system: chronic phase of Philadelphia positive chronic myelogenous leukemia; test: Case of patient #15 successively resistant to five drugs including STI571, treated by homoharringtonine; format: in vivo, human; conditions: patient #15, homoharringtonine as single agent
[3] = system: non-lymphoid blastic phase of CML; test: Study HS3, planned phase II single-arm study of addition of homoharringtonine to STI571; format: in vivo, human
K562-r = test: MTS cell proliferation assay, median effect combination analysis with STI571; format: cell-based, human; conditions: STI571-resistant
Text: (§1) The combination ratios are selected, where possible, such that both drugs are in a range relevant to their achievable serum concentrations. STI571-sensitive and resistant cells are exposed to doubling dilutions of homoharringtonine over a wide range (Table 1). […] The effects of homoharringtonine treatments are plotted and analyzed to produce computed estimations of the relative responses to either homoharringtonine alone or in combination. In this way it is possible to detect synergistic, additive or antagonistic effects. Duplicate or triplicate independent experiments are set up for each cell line/drug combination. In each case the analysis generates plots of CI (Combination Index) versus effect. […] These values are most relevant at high effect levels, as this is the desired physiological level of effect. Subsequently the CI curves can be represented as the average CI values at effects 0.5, 0.75 and 0.9 (IC50, IC75 and IC90 respectively). Cell proliferation is monitored with the CellTiter 96® AQucous One Solution Cell Proliferation Assay (Promega, UK). […] Proliferation is assessed on aliquots taken daily from days 1 to 4 in order to establish the most representative time-point. Replicate experiments are thereafter set up by plating the cells directly into 96-well plates and staining with MTS on day 3. A minimum of 95% viability as assessed by Trypan blue staining is required for the initiation of any experiment. […] Blank wells contained 100 μL RF10. All samples are plated in quadruplicate. […] On day 3, 20 μL of MTS reagent is added to each well, and the plate is re-incubated for a further 3–4 hours for stain development. At the end of this period, the plates are gently agitated and the absorbance of each well at 490 nm is recorded on an automatic microplate reader (MRX, Dynatech, Billingshurst, UK). Averaged blank values (no cells, no drug) are subtracted from sample values, and these corrected A490 values are calculated as percentages of the control cultures grown in the absence of drug. Error bars indicate the range defined in duplicate experiments, and significant differences considered as those which fell outside the region of overlap in the ranges of the means. Such an approach is supported by the non-parametric Mann-Whitney U test.

LAMA84-r = test: as above; format: cell-based, human; conditions: STI571-resistant
Text: as §1

LAMA84-s = test: as above; format: cell-based, human
Text: as §1

K562-s = test: as above; format: cell-based, human
Text: as §1

[4] = system: advanced CP of CML resistant to (interferon alpha+Ara-C); conditions: cited from earlier work

COC(=O)C[C@](O)(CCCC(C)(C)O)C(=O)O[C@@H]1C(OC)=C[C@]23CCCN2CCc2cc4c(cc2[C@H]13)OCO4 [homoharringtonine]
inhibition of colony formation / sensitivity of progenitors (CFU-GM) [1]: sensitive to homoharringtonine; also recorded: significant sensitivity to homoharringtonine
hematologic response [2]: the hematologic response was partial
rate of (CHR+NEL) after addition of homoharringtonine to STI571 (expected) [3]: 30%
interaction with STI571 (in words) (K562-r): clearly synergistic
interaction with STI571 (in words) (LAMA84-r): clearly synergistic
interaction with STI571 (in words) (LAMA84-s): apparently additive if not mildly antagonistic
interaction with STI571 (in words) (K562-s): apparently additive if not mildly antagonistic
median time to survival [4]: 30 months
